# According to PubChem BioAssay AID504444 (National Center for Advancing Translational Sciences (NCATS), 2011):
# About 7,500 (2.1%) of roughly 360,000 compounds were called active. The inconclusive results got no clear call from the source; some entries with a clear call stand among them for comparison. Calls come from the whole dose curve; as a rule, active = well fitted inhibition curve with a large enough effect; inconclusive = small, poorly fitted or top-dose-only effect, or effect the other way; inactive = flat fitted curve, though single readings scatter. A potency beside an inconclusive call is a rough fit, not a confirmed value.
# Experiment: Nrf2 qHTS screen for inhibitors; note: nearly all actives have a fitted effect of over 60% in size
# Conditions: A549 ARE-Fluc reporter, luciferase luminescence, 18-24 h; activity change, negative = inhibition: at 46 µM (top of the series)
# How it was run: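 Two sequential reads on A549 ARE_Fluc cells exposed to compound for 18-24 h: a CellTiter-Fluor fluorescence read for viability, then a luciferase luminescence read for Nrf2/ARE activity.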
# % is set by controls: 0 for no effect and ±100 for the full control effect; potency is the fitted concentration of half-maximal effect.
SMILES,Potency,"activity change, negative = inhibition"
O=C(Nc1ccccc1N1CCOCC1)c1cc(-c2ccncc2)nc2ccccc12,"inconclusive: 6.51 µM [falling, single point]",–
COc1cccc(C(=O)Oc2c(Br)cc(Br)cc2/C=N/NC(=O)c2cc(C)[nH]n2)c1,"inconclusive: 29.1 µM [falling, single point]",–
COc1cccc(N2C(=O)C(c3ccccc3)=C(c3nc4ccccc4s3)C2NC(C)=O)c1 (centres undefined),"inconclusive: 10.3 µM [falling, single point]",–
CC(=O)Nc1ccc(SCC(=O)Nc2sccc2C#N)cc1,"inconclusive: 5.8 µM [activator, partial curve]",–
CCc1ccccc1NC(=O)C1CCCN(c2cnccn2)C1 (centres undefined),inactive,–
CN1/C(=C\C(=O)c2cccnc2)C(C)(C)c2ccccc21,"inconclusive: 16.4 µM [falling, partial curve]",–
CCc1nc(SCC(=O)Nc2cc(OC)ccc2OC)c2c(C)c(C)sc2n1,active: 14.6 µM,–
COc1ccc(-c2nn(-c3ccccc3)cc2/C=N/N2C(=O)CSC2=S)cc1,"inconclusive: 32.6 µM [falling, single point]",–
COc1ccccc1C(C)NC(=O)c1ccc(NC(=O)CC2SC(N3CCCC3)=NC2=O)cc1 (centres undefined),inactive,–
COc1ccc(CC(=O)Nc2cccc(/C(C)=N/NC(=O)C3(C)CC3(Br)Br)c2)cc1 (centres undefined),"inconclusive: 13 µM [falling, partial curve, poor fit]",–
COc1ccc([N+](=O)[O-])cc1NC(=O)C(C)NNC(=O)c1cccc([N+](=O)[O-])c1 (centres undefined),active: 16.4 µM,–
COc1ccc(CNCC(O)(c2ccc(F)cc2)c2ccc(F)cc2)cc1OC,"inconclusive: 29.1 µM [falling, single point]",–
O=S(=O)(Nc1nc2ccccc2s1)c1ccc(Cl)s1,"inconclusive: 29.1 µM [falling, single point]",–
Cc1ccc(C2=NN(C(=O)CCl)C(c3ccco3)C2)o1 (centres undefined),inactive,–
CC(Sc1oc(-c2cccs2)nc1S(=O)(=O)c1ccccc1)c1ccccc1 (centres undefined),–,inactive: 3.71% [at 9.27 µM]
COc1ccccc1NS(=O)(=O)c1ccc(C(=O)N2CCN(c3ccccn3)CC2)cc1,"inconclusive: 20.6 µM [falling, partial curve]",–
O=C1c2ccccc2-c2onc3c(NCCO)cc(NC4CCCCC4)c1c23,active: 20.6 µM,–
COc1ccc(/C=N/Nc2cc(C)nc3ccc(Br)cc23)cc1,"inconclusive: 29.1 µM [falling, single point]",–
OCCCc1cn(-c2ccccc2)c2ccccc12,"inconclusive: 11.6 µM [activator, partial curve]",–
CCOC(=O)c1c(NC(=O)C(=O)N/N=C/c2ccc(O)c(OC)c2)sc2c1CCCCC2,"inconclusive: 20.6 µM [falling, single point]",–
COc1ccc(-n2c(C)c(C(C)=O)c(C(C)=O)c2C)cc1,"inconclusive: 29.1 µM [falling, single point]",–
CCc1ccc(NC(=O)c2nn(-c3ccc(OC)cc3)c(=O)c3c2c2ccccc2n3C)cc1,"inconclusive: 0.13 µM [activator, full curve, poor fit]",–
COc1ccc(NC(=O)c2ccc(S(=O)(=O)N(C)c3ccccc3)cc2)cn1,"inconclusive: 29.1 µM [falling, single point]",–

# A section of the results above:
SMILES,Potency,"activity change, negative = inhibition"
CC(Sc1oc(-c2cccs2)nc1S(=O)(=O)c1ccccc1)c1ccccc1 (centres undefined),–,inactive: 3.71% [at 9.27 µM]
COc1ccccc1NS(=O)(=O)c1ccc(C(=O)N2CCN(c3ccccn3)CC2)cc1,"inconclusive: 20.6 µM [falling, partial curve]",–
O=C1c2ccccc2-c2onc3c(NCCO)cc(NC4CCCCC4)c1c23,active: 20.6 µM,–

# Next part

SMILES,Potency,"activity change, negative = inhibition"
CCCCOc1ccccc1NC(=O)c1scc2c1OCCO2,active: 5.17 µM,–
OC1CCCN(Cc2c3ccccc3cc3ccccc23)C1 (centres undefined),"inconclusive: 23.1 µM [falling, single point]",–
COc1cc(/C=C/C(=O)OCC(=O)c2ccc(OC(F)F)cc2)ccc1O,inactive,–
Cc1cc(O)ccc1NC(=S)NC(=O)c1cncc(Br)c1,"inconclusive: 32.6 µM [falling, single point]",–
CC(C)COc1ccc(C(=O)Nc2ccc([N+](=O)[O-])cc2)cc1,inactive,–
CC(CNC(=O)CCS(=O)(=O)c1cc2c(cc1Cl)NC(=O)CO2)c1ccccc1 (centres undefined),"inconclusive: 29.1 µM [activator, single point]",–
Cc1ccc(/C=N/N2C(=O)c3ccccc3NC2c2ccc(C)cc2)cc1 (centres undefined),"inconclusive: 16.4 µM [activator, partial curve]",–
O=C(NCCC1=CCCCC1)C(=O)NCC(c1ccco1)N1CCN(c2ccccc2)CC1 (centres undefined),"inconclusive: 29.1 µM [falling, single point]",–
CC(C)(C)c1ccc(S(=O)(=O)N2CCC(O)(c3ccc(Cl)cc3)CC2)cc1,"inconclusive: 18.4 µM [falling, partial curve, poor fit]",–
CCOC(=O)c1ccccc1NC(=O)CCc1nc(-c2ccc(C)cc2)no1,inactive,–
CC(=O)c1cc(C#N)c(NCc2ccccc2)nc1C,inactive,–
CCOC(=O)N1CCN(C(=O)CCSCCc2ccncc2)CC1,"inconclusive: 18.4 µM [falling, partial curve, poor fit]",–
O=C(COC(=O)C1C2CC3OC(=O)C1C3C2)Nc1ccc(Cl)cc1 (centres undefined),"inconclusive: 11.6 µM [activator, partial curve, poor fit]",–
COC(=O)c1ccccc1N/C=C1\CCc2c(c(C)nn2-c2ccccn2)C1=O,"inconclusive: 29.1 µM [falling, single point]",–
O=C(NC1CCCCC1)c1ccc(S(=O)(=O)N2CCCCC2)cc1,"inconclusive: 8.2 µM [falling, partial curve, poor fit]",–
CCCCN(C(=O)c1cc2c(s1)CCC2)c1c(N)n(CCC)c(=O)[nH]c1=O,inactive,–
CCC(C(=O)NCCCN(CC)CC)n1ncn2c(cc3occc32)c1=O (centres undefined),inactive,–
COc1cc2c(cc1NC(=O)c1cccc([N+](=O)[O-])c1)oc1ccccc12,active: 16.4 µM,–
COc1cc(/C=N/NC(=O)c2ccc3c(c2)OCO3)ccc1O,"inconclusive: 9.2 µM [falling, partial curve]",–
COc1ccc(CN2CCC(N3CC(C)OC(C)C3)CC2)c(OC)c1 (centres undefined),inactive,–
Cn1c(=O)[nH]c(=O)c2c1nc(Br)n2CCOc1ccccc1,"inconclusive: 0.517 µM [falling, full curve, poor fit]",–
Cn1c(CSCCOc2ccccc2)n[nH]c1=S,"inconclusive: 25.9 µM [falling, partial curve, poor fit]",–
N#Cc1nc(Nc2cc(F)cc(F)c2)nc(Nc2cc(F)cc(F)c2)n1,"inconclusive: 18.4 µM [falling, single point]",–

SMILES,Potency,"activity change, negative = inhibition"
N#C/C(=C/c1ccc(Sc2nc3ccccc3[nH]2)o1)c1cccc(F)c1,active: 20.6 µM,–
CC1CCCC(NC(=S)Nc2ccc(SC(F)F)cc2)C1C (centres undefined),"inconclusive: 18.4 µM [falling, single point]",–
N#Cc1nc(COc2ccc(-c3ccccc3)cc2)oc1N1CCC(C(N)=O)CC1,"inconclusive: 14.6 µM [falling, single point]",–
Cc1ccc(OCC(=O)NCCO)c(Br)c1,"inconclusive: 7.31 µM [activator, partial curve]",–
CN(C)S(=O)(=O)c1cccc(-c2nn(-c3ccccc3)cc2/C=C2\SC(=S)NC2=O)c1,active: 16.4 µM,–
O=C(Cn1cnc2ccccc2c1=O)c1ccc2ccccc2c1,"inconclusive: 0.092 µM [activator, full curve, poor fit]",–
NS(=O)(=O)c1cccc(NC(=O)c2cccc(Oc3ccccc3)c2)c1,"inconclusive: 8.2 µM [falling, partial curve]",–
O=C(CCn1cnc2onc(-c3ccc(F)cc3)c2c1=O)N1CCN(c2cccc(Cl)c2)CC1,"inconclusive: 25.9 µM [falling, single point]",–
COc1cc2c(cc1NC(=O)C(C)OC(=O)c1ccc(S(=O)(=O)Nc3ccccc3Cl)cc1)oc1ccccc12 (centres undefined),inactive,–
COc1ccc(NC(=O)c2cccs2)c([N+](=O)[O-])c1,"inconclusive: 20.6 µM [activator, single point]",–
N#C/C(=C\c1cccc([N+](=O)[O-])c1)C(=O)NCc1cccnc1,inactive,–
Cc1cc(N=Nc2ccc(C)c(N=Nc3cc(C)c(N)cc3N)c2)c(N)cc1N,"inconclusive: 23.1 µM [activator, partial curve]",–
CCn1c(CCCOc2ccc(Cl)cc2Cl)nnc1SCC(=O)Nc1cc(F)ccc1C,inactive,–
Cc1ccccc1-c1noc(-c2ccccc2OCC(=O)Nc2ccccc2[N+](=O)[O-])n1,"inconclusive: 23.1 µM [falling, single point]",–
O=C(CSc1n[nH]c(-c2ccccc2)n1)N1CCOCC1,"inconclusive: 18.4 µM [activator, single point]",–
NC(=O)SCC(=O)Nc1ccc(Cl)c(Cl)c1,"inconclusive: 11.6 µM [falling, partial curve]",–
CCc1ccc(NC(=O)CN(Cc2ccccc2)S(=O)(=O)c2ccc3nc(C)sc3c2)cc1,"inconclusive: 18.4 µM [falling, single point]",–
CCOc1ccccc1N1CCN(C(=O)c2cc3c(C)cc(C)cc3[nH]2)CC1,"inconclusive: 29.1 µM [falling, single point]",–
O=C(Nc1ccc2[nH]c(=S)sc2c1)Nc1ccccc1F,"inconclusive: 0.651 µM [activator, full curve]",–
O=C1CC(NNc2ccccc2)C(=O)N1c1ccccc1 (centres undefined),inactive,–
COc1ccccc1-c1cc(C(=O)N/N=C/c2ccc(C)o2)c2ccccc2n1,"inconclusive: 29.1 µM [activator, single point]",–
Cc1ccc(S(=O)(=O)Cc2ccc(C(=O)O)o2)cc1,inactive,–
O=C(c1ccc(S(=O)(=O)Nc2ccccc2)cc1)N1CCCC(C(F)(F)F)C1 (centres undefined),active: 25.9 µM,–
